Patent publication US10118935B2, “Melampomagnolide B dimers” (priority 2014, dated 2018)
At least one compound was matched to its structure with a doubt left.

Columns and labels:
HS 578T = assay: NCI 60 cell line five dose, Breast Cancer; details: read-out: LC50; HS578T
HT29 = assay: NCI 60 cell line five dose, Colon Cancer
MCF7 = assay: NCI 60 cell line five dose, Breast Cancer
NCI/ADR-RES = assay: NCI 60 cell line five dose, Ovarian Cancer
MDA-MB-231/ATCC = assay: NCI 60 cell line five dose, Breast Cancer; details: read-out: LC50
OVCAR-4 = assay: NCI 60 cell line five dose, Ovarian Cancer
IGROV1 = assay: NCI 60 cell line five dose, Ovarian Cancer; format: cell-based, human; details: molar, read-out: LC50 (the source's name)
SR = assay: NCI 60 cell line five dose, Leukemia; details: molar

Structure (SMILES) | CC50 (HS 578T) [µM] | GI50 (HT29) [µM] | TGI (HT29) [µM] | Percent Growth (HT29; Log10 Concentration −4.0) [%] | Percent Growth (HT29; Log10 Concentration −5.0) [%] | Percent Growth (HT29; Log10 Concentration −6.0) [%] | Percent Growth (HT29; Log10 Concentration −7.0) [%] | Percent Growth (HT29; Log10 Concentration −8.0) [%] | CC50 (HT29; read-out: LC50) [µM] | GI50 (MCF7) [E− M] | CC50 (MCF7; read-out: LC50) [µM] | TGI (NCI/ADR-RES) [E− M] | CC50 (MDA-MB-231/ATCC) [µM] | TGI (OVCAR-4) | CC50 (IGROV1) [µM] | TGI (SR) [E−]
C=C1C(=O)O[C@H]2[C@H]1CC/C(COC(=O)NCCCCNC(=O)OC/C1=C/CC[C@@]3(C)O[C@H]3[C@H]3OC(=O)C(=C)[C@@H]3CC1)=C\CC[C@@]1(C)O[C@@H]21 [JVM 3-54, bis(((1aR,7aS,10aS,10bS,E)-1a-Methyl-8-methylene-9-oxo-1a,2,3,6,7,7a,8,9,10a,10b-decahydrooxireno[2′,3′:9,10]cyclodeca[1,2-b]furan-5-yl)methyl)butane-1,4-diyldicarbamate] | 8.23 | 0.605 | 2.05 | −50 | −81 | 37 | 98 | 99 | 100 | 3.828 | 6.83 | >1.00 | > 100 | 8.53−6 M |  | 
C=C1C(=O)O[C@H]2[C@H]1CC/C(COC(=O)NCCCCCCCCNC(=O)OC/C1=C/CC[C@@]3(C)O[C@H]3[C@H]3OC(=O)C(=C)[C@@H]3CC1)=C\CC[C@@]1(C)O[C@@H]21 [JVM 3-62, bis(((1aR,7aS, 10aS, 10bS, E)-1a-Methyl-8-methylene-9-oxo-1a,2,3,6,7,7a,8,9,10a,10b-decahydrooxireno[2′,3′:9,10]cyclodeca[1,2-b]furan-5-yl)methyl)octane-1,8-diyldicarbamate] |  |  |  |  |  |  |  |  |  |  |  |  |  |  | 6.72 | 1.51
